{
  "source": "the supplement of paper PMC8728848",
  "binders": {"B1": {"name": "Agalectin (Anopheles gambiae) (protein)", "chain": "MSNRPFTAKFPRYPENGDEVFIRGKLKDDAKSFSVNFCLPRPAQVAEHQTPPYIALHFKTIYDERDDTSRVVLNWKNLQWQQEEVLDNYWHVDRSQTFRVVFRLHEDCIKVFVNSVDHPPDYQFPVQLPLDQIESIELWDDVEHVEEISFRYDNGNSY"}},
  "assay_in_all_cases": "glycan array binding signal (z-score within array); higher = stronger binding",
  "conditions_in_all_cases": "glycan notation: IUPAC condensed, linker removed",
  "key": {"Gal6S(b1-4)Glc6S": {"biological_target": "Gal6S(b1-4)Glc6S", "procedure,_shortened": "(§1)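 The binding signal is a Z-score computed within each array. Data were drawn from 3228 arrays in the Consortium for Functional Glycomics database, restricted to those with a known protein sequence. Scores were averaged over arrays of the same protein sequence at different concentrations or buffers, and over linkers, and negative values can be taken as non-binding.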"}, "Gal6S(b1-4)GlcNAc": {"biological_target": "Gal6S(b1-4)GlcNAc", "procedure,_shortened": "as §1"}, "Gal6S(b1-4)GlcNAc6S": {"biological_target": "Gal6S(b1-4)GlcNAc6S", "procedure,_shortened": "as §1"}, "GalNAc(a1-3)Gal": {"biological_target": "GalNAc(a1-3)Gal", "procedure,_shortened": "as §1"}, "GalNAc(a1-3)GalNAc": {"biological_target": "GalNAc(a1-3)GalNAc", "procedure,_shortened": "as §1"}, "[1]": {"biological_target": "GalNAc(a1-3)GalNAc(b1-3)Gal(a1-4)Gal(b1-4)Glc", "procedure,_shortened": "as §1"}, "[2]": {"biological_target": "GalNAc(a1-3)GalNAc(b1-3)Gal(a1-4)Gal(b1-4)GlcNAc", "procedure,_shortened": "as §1"}, "GalNAc(b1-3)Gal": {"biological_target": "GalNAc(b1-3)Gal", "procedure,_shortened": "as §1"}, "[3]": {"biological_target": "GalNAc(b1-3)Gal(a1-4)Gal(b1-4)GlcNAc", "procedure,_shortened": "as §1"}, "[4]": {"biological_target": "GalNAc(b1-3)Gal(a1-4)Gal(b1-4)GlcNAc(b1-3)Gal(b1-4)Glc", "procedure,_shortened": "as §1"}, "[5]": {"biological_target": "GalNAc(b1-3)Gal(a1-6)Gal(b1-4)Glc", "procedure,_shortened": "as §1"}, "GalNAc(b1-3)GalNAc": {"biological_target": "GalNAc(b1-3)GalNAc", "procedure,_shortened": "as §1"}, "GalNAc(b1-3)GlcNAc": {"biological_target": "GalNAc(b1-3)GlcNAc", "procedure,_shortened": "as §1"}, "GalNAc(b1-4)Gal(b1-4)Glc": {"biological_target": "GalNAc(b1-4)Gal(b1-4)Glc", "procedure,_shortened": "as §1"}, "GalNAc(b1-4)GlcNAc": {"biological_target": "GalNAc(b1-4)GlcNAc", "procedure,_shortened": "as §1"}, "[6]": {"biological_target": "GalNAc(b1-4)GlcNAc(b1-2)Man", "procedure,_shortened": "as §1"}, "[7]": {"biological_target": "GalNAc(b1-4)GlcNAc(b1-2)Man(a1-3)[GalNAc(b1-4)GlcNAc(b1-2)Man(a1-6)]Man(b1-4)GlcNAc(b1-4)GlcNAc", "procedure,_shortened": "as §1"}, "[8]": {"biological_target": "GalNAc(b1-4)GlcNAc(b1-3)GalNAc(b1-4)GlcNAc", "procedure,_shortened": "as §1"}, "GalNAc(b1-4)GlcNAc6S": {"biological_target": "GalNAc(b1-4)GlcNAc6S", "procedure,_shortened": "as §1"}, "GalNAc(b1-6)GalNAc": {"biological_target": "GalNAc(b1-6)GalNAc", "procedure,_shortened": "as §1"}, "GalNAc3S(b1-4)GlcNAc": {"biological_target": "GalNAc3S(b1-4)GlcNAc", "procedure,_shortened": "as §1"}, "GalNAc3S(b1-4)GlcNAc3S": {"biological_target": "GalNAc3S(b1-4)GlcNAc3S", "procedure,_shortened": "as §1"}, "[9]": {"biological_target": "GalNAc3S(b1-4)[Fuc(a1-3)]GlcNAc", "procedure,_shortened": "as §1"}, "GalNAc4S6S(b1-4)GlcNAc": {"biological_target": "GalNAc4S6S(b1-4)GlcNAc", "procedure,_shortened": "as §1"}, "GalNAc6S(b1-4)GlcNAc": {"biological_target": "GalNAc6S(b1-4)GlcNAc", "procedure,_shortened": "as §1"}, "Glc(a1-4)Glc": {"biological_target": "Glc(a1-4)Glc", "procedure,_shortened": "as §1"}, "[10]": {"biological_target": "Glc(a1-4)Glc(a1-4)Glc(a1-4)Glc", "procedure,_shortened": "as §1"}, "Glc(a1-6)Glc(a1-6)Glc": {"biological_target": "Glc(a1-6)Glc(a1-6)Glc", "procedure,_shortened": "as §1"}, "[11]": {"biological_target": "Glc(a1-6)Glc(a1-6)Glc(a1-6)Glc", "procedure,_shortened": "as §1"}, "Glc(b1-4)Glc": {"biological_target": "Glc(b1-4)Glc", "procedure,_shortened": "as §1"}, "Glc(b1-6)Glc": {"biological_target": "Glc(b1-6)Glc", "procedure,_shortened": "as §1"}, "GlcA(b1-3)Gal": {"biological_target": "GlcA(b1-3)Gal", "procedure,_shortened": "as §1"}, "GlcA(b1-3)GlcNAc": {"biological_target": "GlcA(b1-3)GlcNAc", "procedure,_shortened": "as §1"}, "GlcA(b1-6)Gal": {"biological_target": "GlcA(b1-6)Gal", "procedure,_shortened": "as §1"}, "[12]": {"biological_target": "GlcA3S(b1-3)Gal(b1-4)GlcNAc(b1-2)Man", "procedure,_shortened": "as §1"}, "[13]": {"biological_target": "GlcA3S(b1-3)Gal(b1-4)GlcNAc(b1-3)Gal(b1-4)Glc", "procedure,_shortened": "as §1"}, "[14]": {"biological_target": "GlcNAc(a1-3)Gal(b1-4)GlcNAc", "procedure,_shortened": "as §1"}, "[15]": {"biological_target": "GlcNAc(a1-4)Gal(b1-3)GlcNAc", "procedure,_shortened": "as §1"}, "[16]": {"biological_target": "GlcNAc(a1-4)Gal(b1-4)GalNAc", "procedure,_shortened": "as §1"}, "[17]": {"biological_target": "GlcNAc(a1-4)Gal(b1-4)GlcNAc", "procedure,_shortened": "as §1"}, "[18]": {"biological_target": "GlcNAc(a1-4)Gal(b1-4)GlcNAc(b1-3)Gal(b1-4)Glc", "procedure,_shortened": "as §1"}, "[19]": {"biological_target": "GlcNAc(a1-4)Gal(b1-4)GlcNAc(b1-3)Gal(b1-4)GlcNAc", "procedure,_shortened": "as §1"}, "[20]": {"biological_target": "GlcNAc(a1-4)Gal(b1-4)GlcNAc(b1-3)Gal(b1-4)GlcNAc(b1-3)Gal(b1-4)GlcNAc", "procedure,_shortened": "as §1"}, "[21]": {"biological_target": "GlcNAc(a1-4)Gal(b1-4)GlcNAc(b1-3)Gal(b1-4)[Fuc(a1-3)]GlcNAc(b1-3)Gal(b1-4)[Fuc(a1-3)]GlcNAc", "procedure,_shortened": "as §1"}, "[22]": {"biological_target": "GlcNAc(a1-6)Gal(b1-4)GlcNAc", "procedure,_shortened": "as §1"}},
  "note": "The list shows a part of the results.",
  "data": [
    {"binder": "B1", "values": [
      {"measurement": "glycan array binding signal (z-score)", "setting": "Gal6S(b1-4)Glc6S", "result": -0.386},
      {"measurement": "glycan array binding signal (z-score)", "setting": "Gal6S(b1-4)GlcNAc", "result": -0.987},
      {"measurement": "glycan array binding signal (z-score)", "setting": "Gal6S(b1-4)GlcNAc6S", "result": 0.075},
      {"measurement": "glycan array binding signal (z-score)", "setting": "GalNAc(a1-3)Gal", "result": -0.221},
      {"measurement": "glycan array binding signal (z-score)", "setting": "GalNAc(a1-3)GalNAc", "result": -0.555},
      {"measurement": "glycan array binding signal (z-score)", "setting": "[1]", "result": -0.618},
      {"measurement": "glycan array binding signal (z-score)", "setting": "[2]", "result": -0.519},
      {"measurement": "glycan array binding signal (z-score)", "setting": "GalNAc(b1-3)Gal", "result": -0.678},
      {"measurement": "glycan array binding signal (z-score)", "setting": "[3]", "result": 0.942},
      {"measurement": "glycan array binding signal (z-score)", "setting": "[4]", "result": 0.038},
      {"measurement": "glycan array binding signal (z-score)", "setting": "[5]", "result": -0.579},
      {"measurement": "glycan array binding signal (z-score)", "setting": "GalNAc(b1-3)GalNAc", "result": -1.04},
      {"measurement": "glycan array binding signal (z-score)", "setting": "GalNAc(b1-3)GlcNAc", "result": -0.481},
      {"measurement": "glycan array binding signal (z-score)", "setting": "GalNAc(b1-4)Gal(b1-4)Glc", "result": 0.475},
      {"measurement": "glycan array binding signal (z-score)", "setting": "GalNAc(b1-4)GlcNAc", "result": -0.111},
      {"measurement": "glycan array binding signal (z-score)", "setting": "[6]", "result": 0.499},
      {"measurement": "glycan array binding signal (z-score)", "setting": "[7]", "result": 0.904},
      {"measurement": "glycan array binding signal (z-score)", "setting": "[8]", "result": -0.073},
      {"measurement": "glycan array binding signal (z-score)", "setting": "GalNAc(b1-4)GlcNAc6S", "result": 0.355},
      {"measurement": "glycan array binding signal (z-score)", "setting": "GalNAc(b1-6)GalNAc", "result": -0.561},
      {"measurement": "glycan array binding signal (z-score)", "setting": "GalNAc3S(b1-4)GlcNAc", "result": -0.095},
      {"measurement": "glycan array binding signal (z-score)", "setting": "GalNAc3S(b1-4)GlcNAc3S", "result": -0.229},
      {"measurement": "glycan array binding signal (z-score)", "setting": "[9]", "result": -0.78},
      {"measurement": "glycan array binding signal (z-score)", "setting": "GalNAc4S6S(b1-4)GlcNAc", "result": -0.181},
      {"measurement": "glycan array binding signal (z-score)", "setting": "GalNAc6S(b1-4)GlcNAc", "result": -0.949},
      {"measurement": "glycan array binding signal (z-score)", "setting": "Glc(a1-4)Glc", "result": -0.276},
      {"measurement": "glycan array binding signal (z-score)", "setting": "[10]", "result": 0.224},
      {"measurement": "glycan array binding signal (z-score)", "setting": "Glc(a1-6)Glc(a1-6)Glc", "result": -0.568},
      {"measurement": "glycan array binding signal (z-score)", "setting": "[11]", "result": -0.328},
      {"measurement": "glycan array binding signal (z-score)", "setting": "Glc(b1-4)Glc", "result": -0.613},
      {"measurement": "glycan array binding signal (z-score)", "setting": "Glc(b1-6)Glc", "result": -1.13},
      {"measurement": "glycan array binding signal (z-score)", "setting": "GlcA(b1-3)Gal", "result": 0.648},
      {"measurement": "glycan array binding signal (z-score)", "setting": "GlcA(b1-3)GlcNAc", "result": -0.954},
      {"measurement": "glycan array binding signal (z-score)", "setting": "GlcA(b1-6)Gal", "result": -1.35},
      {"measurement": "glycan array binding signal (z-score)", "setting": "[12]", "result": -0.57},
      {"measurement": "glycan array binding signal (z-score)", "setting": "[13]", "result": -0.94},
      {"measurement": "glycan array binding signal (z-score)", "setting": "[14]", "result": -0.001},
      {"measurement": "glycan array binding signal (z-score)", "setting": "[15]", "result": 0.451},
      {"measurement": "glycan array binding signal (z-score)", "setting": "[16]", "result": -0.858},
      {"measurement": "glycan array binding signal (z-score)", "setting": "[17]", "result": 0.21},
      {"measurement": "glycan array binding signal (z-score)", "setting": "[18]", "result": -0.151},
      {"measurement": "glycan array binding signal (z-score)", "setting": "[19]", "result": 0.762},
      {"measurement": "glycan array binding signal (z-score)", "setting": "[20]", "result": -0.12},
      {"measurement": "glycan array binding signal (z-score)", "setting": "[21]", "result": 0.91},
      {"measurement": "glycan array binding signal (z-score)", "setting": "[22]", "result": -1.22}
    ]}
  ]
}
